In paper doi:10.1101/2021.08.16.456439:
These are yes or no findings as the source states them, for the method shown. In cells and extracts the contact can be indirect.

Chains of the proteins cited; added tags and fusions are not shown.
UniProt P61081: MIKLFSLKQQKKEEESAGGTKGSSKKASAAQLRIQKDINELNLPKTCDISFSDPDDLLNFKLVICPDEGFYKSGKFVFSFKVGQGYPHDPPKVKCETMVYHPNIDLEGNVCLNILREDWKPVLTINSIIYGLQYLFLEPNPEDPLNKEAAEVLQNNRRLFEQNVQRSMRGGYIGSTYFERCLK
UniProt O75925: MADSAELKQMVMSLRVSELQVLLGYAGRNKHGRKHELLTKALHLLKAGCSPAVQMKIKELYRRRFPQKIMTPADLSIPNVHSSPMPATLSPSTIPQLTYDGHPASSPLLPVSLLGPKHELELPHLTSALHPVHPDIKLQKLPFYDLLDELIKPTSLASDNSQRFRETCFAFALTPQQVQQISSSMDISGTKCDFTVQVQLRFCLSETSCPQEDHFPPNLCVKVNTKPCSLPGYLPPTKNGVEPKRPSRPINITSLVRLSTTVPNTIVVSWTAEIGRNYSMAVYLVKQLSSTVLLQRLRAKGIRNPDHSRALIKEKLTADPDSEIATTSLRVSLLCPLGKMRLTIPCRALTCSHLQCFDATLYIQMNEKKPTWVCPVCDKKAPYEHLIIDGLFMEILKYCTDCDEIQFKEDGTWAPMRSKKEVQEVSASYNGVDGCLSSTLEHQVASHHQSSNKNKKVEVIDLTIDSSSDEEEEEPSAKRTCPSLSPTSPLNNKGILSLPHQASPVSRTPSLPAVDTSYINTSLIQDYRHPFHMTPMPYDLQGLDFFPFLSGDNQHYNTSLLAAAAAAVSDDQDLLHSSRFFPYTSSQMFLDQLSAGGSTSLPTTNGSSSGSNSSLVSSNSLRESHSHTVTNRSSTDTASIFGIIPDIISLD

Target: CyPet-Ubc12 (UniProt P61081)
Test: FRET or BRET

YPet-PIAS1 (from UniProt O75925 1-651) (enzyme)
binding: no binding
